Reference: paper PMC8431828
Results are given in words; binding and its absence hold for the method and conditions named. In cells and extracts the contact can be indirect. Some binding calls cover weakened binding; strength is not graded here.

Protein sequences, listed by entry. Tags and fused reporters are not part of them.
UniProt Q8X1E6: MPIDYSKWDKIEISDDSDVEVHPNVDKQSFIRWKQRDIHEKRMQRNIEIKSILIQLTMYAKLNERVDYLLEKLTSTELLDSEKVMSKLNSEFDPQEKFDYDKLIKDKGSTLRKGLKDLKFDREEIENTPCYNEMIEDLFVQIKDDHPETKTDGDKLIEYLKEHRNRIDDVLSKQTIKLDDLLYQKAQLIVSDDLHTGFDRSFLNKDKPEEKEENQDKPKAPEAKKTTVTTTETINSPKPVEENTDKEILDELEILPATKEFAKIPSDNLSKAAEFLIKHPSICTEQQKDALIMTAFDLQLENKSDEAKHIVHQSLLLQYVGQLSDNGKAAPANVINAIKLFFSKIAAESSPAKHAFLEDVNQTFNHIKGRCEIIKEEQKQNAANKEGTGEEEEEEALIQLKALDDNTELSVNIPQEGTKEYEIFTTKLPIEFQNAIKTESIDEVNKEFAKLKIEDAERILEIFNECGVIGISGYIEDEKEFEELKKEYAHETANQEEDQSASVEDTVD
UniProt P46598: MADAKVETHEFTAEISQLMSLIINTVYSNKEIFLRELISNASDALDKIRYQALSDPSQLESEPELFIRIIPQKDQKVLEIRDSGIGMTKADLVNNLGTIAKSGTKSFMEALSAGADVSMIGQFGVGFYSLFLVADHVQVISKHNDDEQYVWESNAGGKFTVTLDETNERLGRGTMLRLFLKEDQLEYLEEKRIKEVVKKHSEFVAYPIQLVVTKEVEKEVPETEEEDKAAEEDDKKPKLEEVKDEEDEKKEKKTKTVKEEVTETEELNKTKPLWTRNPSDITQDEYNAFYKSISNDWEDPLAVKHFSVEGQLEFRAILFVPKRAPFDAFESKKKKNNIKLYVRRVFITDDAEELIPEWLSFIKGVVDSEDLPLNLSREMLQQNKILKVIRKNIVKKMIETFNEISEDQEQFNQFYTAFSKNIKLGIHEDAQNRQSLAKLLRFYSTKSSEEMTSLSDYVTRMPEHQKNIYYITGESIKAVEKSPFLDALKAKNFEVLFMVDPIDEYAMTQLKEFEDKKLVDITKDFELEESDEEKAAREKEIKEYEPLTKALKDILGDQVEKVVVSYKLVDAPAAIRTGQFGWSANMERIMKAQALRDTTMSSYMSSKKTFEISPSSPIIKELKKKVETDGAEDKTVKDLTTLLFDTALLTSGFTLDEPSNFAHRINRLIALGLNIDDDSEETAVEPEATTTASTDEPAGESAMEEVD

Assays:
Experiment in all cases: co-IP; 7.5 mg of C. albicans lysate protein with IgG or α-HA agarose targeting the tagged co-chaperone, 2 hours at 4°C; 50 mM Tris-HCl pH 7.5, 1% Nonidet P 40 substitute, 0.25% deoxycholate Na, 150 mM NaCl, 5 mM EDTA, 1 mM Na2MoO4; co-immunoprecipitated Hsp90 detected by blot with an Hsp90-specific antibody
[1] = target: HA-tagged Cdc37 (C. albicans) (UniProt Q8X1E6)
[2] = target: HA-tagged Sba1 (C. albicans)
[3] = target: TAP-tagged Sti1 (C. albicans)
[4] = target: HA-tagged Aha1 (C. albicans)

Measured: binding

Candida albicans Hsp90 (wild type) (from UniProt P46598 1-707)
binds: all assays above
